For 5 substances, binding results are on record in PMC2211523.

The chains behind the UniProt entries cited, without tags or fusion partners. Where a name states a change or a piece, a line headed by the entry shows the natural chain unless it says otherwise.
UniProt P31539: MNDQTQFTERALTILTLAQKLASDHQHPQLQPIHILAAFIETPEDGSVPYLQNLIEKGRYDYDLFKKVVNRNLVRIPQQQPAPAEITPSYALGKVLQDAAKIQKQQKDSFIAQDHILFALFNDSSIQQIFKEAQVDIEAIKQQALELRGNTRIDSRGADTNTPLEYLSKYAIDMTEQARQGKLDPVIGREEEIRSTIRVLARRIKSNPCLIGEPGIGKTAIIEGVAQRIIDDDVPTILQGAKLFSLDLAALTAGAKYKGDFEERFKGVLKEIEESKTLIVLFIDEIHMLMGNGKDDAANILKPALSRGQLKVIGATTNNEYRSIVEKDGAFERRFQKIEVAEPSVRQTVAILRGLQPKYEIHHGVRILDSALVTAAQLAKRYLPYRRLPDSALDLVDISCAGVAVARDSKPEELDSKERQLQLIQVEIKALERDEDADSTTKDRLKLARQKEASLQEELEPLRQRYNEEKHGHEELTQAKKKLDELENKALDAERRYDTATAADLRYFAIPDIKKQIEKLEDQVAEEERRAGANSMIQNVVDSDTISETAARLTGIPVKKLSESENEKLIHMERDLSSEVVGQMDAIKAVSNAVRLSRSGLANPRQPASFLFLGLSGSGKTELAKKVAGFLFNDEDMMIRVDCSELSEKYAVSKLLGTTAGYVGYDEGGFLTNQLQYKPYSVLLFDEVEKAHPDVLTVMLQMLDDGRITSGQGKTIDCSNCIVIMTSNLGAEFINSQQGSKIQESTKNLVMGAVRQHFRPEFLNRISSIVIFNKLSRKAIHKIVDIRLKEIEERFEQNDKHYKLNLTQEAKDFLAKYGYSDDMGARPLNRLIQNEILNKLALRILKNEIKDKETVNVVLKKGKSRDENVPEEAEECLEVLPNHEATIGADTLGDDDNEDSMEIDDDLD

No constants are given. Whether binding was seen depends on the method and setting.

Holding throughout (test): condition: only in the absence of nucleotide (0.2 μM monomer); cross-linking; glutaraldehyde crosslinking in the absence of nucleotide, 0.2 μM monomer; 40 mM HEPES-KOH (pH 7.4), 150 mM KCl, 20 mM MgCl2, 1 mM DTT; both purified
Assay [1] has as its target Hsp104^R444M (S. cerevisiae) (UniProt P31539).
Assay [2] addresses Hsp104^R495M (S. cerevisiae) (UniProt P31539).
Assay [3] addresses Hsp104^R334M (S. cerevisiae) (UniProt P31539).
Assay [4] has as its target Hsp104^R419M (S. cerevisiae) (UniProt P31539).
For assay [5], the target named is Hsp104 (wild-type) (S. cerevisiae) (UniProt P31539).

“Hsp104^R444M (from UniProt P31539 1-908)”: in assay [1], the binding entry was “no binding”.

Take “Hsp104^R495M (from UniProt P31539 1-908)”: the binding result in assay [2] was “no binding”.

In the case of “Hsp104^R334M (from UniProt P31539 1-908)”, the binding entry in assay [3] is listed as “no binding”.

As to “Hsp104^R419M (from UniProt P31539 1-908)”, the binding entry in assay [4] is “no binding”.

Consider “Hsp104 (wild-type) (from UniProt P31539 1-908)”, for which the binding entry in assay [5] was “no binding”.
